Patent US10196668B2, “Reagents and methods for screening MPS I, II, IIIA, IIIB, IVA, VI, and VII” (University of Washington through its Center for …, priority 2013, dated 2019)

Experiment: MSMS response (ion counts per pmole of analyte) of products and internal standards
Details: for MSMS response: MPS-I product compared to Fabry assay product

Question: Which results are given for `CC(=O)N(CCCCCCNC(=O)c1ccccc1)CCC(=O)Nc1ccc(OC2OC(C(=O)O)C(O)C(O)C2O)cc1` (stereo not drawn) [Alternative MPS-I]?
Answer: MSMS response of IS and P (MPS-I product and internal standard, LC/MSMS): 500 ion counts/pmole; sensitivity in MSMS detection of product, alternative versus original substrate (MPS-I, LC/MSMS): about 5 fold; MSMS response of product and internal standard, alternative versus original (MPS-I, flow injection-MSMS (not shown)): about 5 fold

Question: With `CC(=O)N(CCCCCCNC(=O)c1ccccc1)CCC(=O)Nc1ccc(O)cc1` [MPS-I product] as the molecule, how does the MSMS response read?
Answer: 500 ion counts per pmole

Question: For `CCCCC(=O)N(CCCCCNC(=O)c1ccccc1)CCC(=O)Nc1ccc(OC2OC(CO)C(OS(=O)(=O)O)C(O)C2NC(C)=O)cc1` [Alternative MPS-VI, Sodium (2R,3R,4R,5R,6S)-5-acetamido-6(4(3-(N (5-benzamidopentyl)-pentanamido)propanamido)phenoxy)-4-hydroxy-2-(hydroxymethyl)tetrahydro-2H-pyran-3-yl sulfate], which “sensitivity in MSMS detection of product, alternative versus original substrate” value (MPS-VI) is on record?
Answer: about 10 fold

Question: What about the “MSMS response of IS and P” value (MPS-VI product and internal standard, infused into tandem mass spectrometer) of the same molecule?
Answer: 290 ion counts/pmole

Question: Which MSMS response does the source give for `CC(C)(C)OC(=O)N(CCCCCCNC(=O)c1ccccc1)CCC(=O)Nc1ccc(O)cc1` [Fabry product, reference compound] here?
Answer: 211 ion counts per pmole

Question: With `CCCCC(=O)N(CCCCCCNC(=O)c1ccccc1)CCC(=O)Nc1ccc(OC2OC(C(=O)O)C(O)C(O)C2OS(=O)(=O)O)cc1` (stereo not drawn) [Alternative MPS-II] as the molecule, how does the “sensitivity in MSMS detection of product, alternative versus original substrate” value (MPS-II) read?
Answer: about 10 fold

Question: And the “MSMS response of IS and P” value (MPS-II product and internal standard, infused into tandem mass spectrometer)?
Answer: 86 ion counts/pmole

Structures can show the parent of a compound that is named as a salt.
